Data published in article doi:10.1101/2023.03.17.532992.
The exact form of at least one protein or probe is not confirmed. At least one verdict was read from the data and is not stated in words by the source.

What follows are sequences tested on BCL7A (Homo sapiens) (assay: EMSA). Conditions: 5-methyl-C (CpG methylation) at C4 and C8 of both strands; residues 1-231.

Binding result, binds:
GGGCGGCCGCCC (double strand) [12_CpGme2]

Same assay, conditions: residues 1-231

Binding result, binds:
CATGCATGACTG (double strand) [12_mix_Blunt]
CATGCATGACTG / TCAGCAGTCATGCATG [12_mix_5oh]
CATGCATGACTGTCAG / CAGTCATGCATG [12_mix_3oh]
GGGCGGCCGCCC (double strand) [12_CpG]
GGGGGGCCCCCC (double strand) [12_GpC]
TTTTTATTAATAAAAA (double strand) [16_ATrich]
